Assay results reported in publication PMC12431657, “Discovery and mechanistic insights of dibenzoylmethane as a broad spectrum inhibitor of coronavirus” (PLOS Pathogens, 2025).
Structures can show the parent of a compound that is named as a salt. Where two headings read alike, the source gives them in different places. Among all 3,300 compounds or so, about 95 (3%) showed an effect of 50% or more. The list shows a part of the results.

Tested on: HCoV-229E
Parameters: species or system Huh-7; HTS, protection from HCoV-229E induced cell death, luminescent cell viability (CellCounting-Lite 2.0), inhibition rate
Settings: 24 h post infection, 1 h compound pre-incubation, 10 µM, inhibitor

## CCCCCCCC/C=C\CCCCCCCC(=O)OCC(COC(=O)CCCCCCC/C=C\CCCCCCCC)OC(=O)CCCCCCCCCCCCCCC [1,3-Dioleoyl-2-palmitoylglycerol]
  229E Inhibition rate: 12.3%

## C=C1C(=O)O[C@H]2[C@H]1CCC(C)=C1CC[C@@](C)(O)[C@@H]12 [Micheliolide]
  229E Inhibition rate: 11.4%

## CCOC(=O)NCCCC(=O)NCCc1ccccc1 [Santacruzamate A]
  229E Inhibition rate: 6.7%

## COc1ccc2c(c1)[nH]c1c(C)nccc12 [Harmine]
229E Inhibition rate, 24 h
  229E Inhibition rate: 12.2%

## CC[C@H]1[C@@H]2C[C@H]3[C@@H]4N(C)c5ccccc5[C@]45C[C@@H]([C@H]2[C@H]5O)N3[C@@H]1O [Ajmaline]
  229E Inhibition rate: 44.9%

## O=C(O)c1cc(O)c(O)c(O)c1 [Gallic acid (hydrate)]
229E Inhibition rate, 24 h
  229E Inhibition rate: 34.3%

## Cc1ccc(C(C)C)cc2c(C)ccc1-2 [Guaiazulene]
  229E Inhibition rate: 29.8%

## C=C1CCC2(C(C)C)CC12 (stereo not drawn) [Sabinene]
  229E Inhibition rate: 9%

## NC(=O)c1ncn([C@@H]2O[C@H](CO)[C@@H](O)[C@H]2O)c1O [Mizoribine]
  229E Inhibition rate: 7.9%

## Cn1cnc2c(ncn2[C@@H]2O[C@H](CO)[C@@H](O)[C@H]2O)c1=N [1-Methyladenosine]
  229E Inhibition rate: 12.1%

## CCc1cc(C(N)=S)ccn1 [Ethionamide]
  229E Inhibition rate: 8.8%

## COC(=O)Nc1ccc(C)c(NC(=O)OC)c1 [Obtucarbamate A]
  229E Inhibition rate: 22.6%

## C[S+]([O-])CC[C@H](N)C(=O)O (stereo partly drawn) [L-Methionine sulfoxide]
229E Inhibition rate, 24 h
  229E Inhibition rate: 11.6%

## C=C(C)[C@@H]1CC[C@]2(C=O)CC[C@]3(C)[C@H](CC[C@@H]4[C@@]5(C)CC[C@H](O)C(C)(C)[C@@H]5CC[C@]43C)[C@@H]12 [Betulinaldehyde]
  229E Inhibition rate: 26.8%

## Cc1ncc(COP(=O)(O)O)c(C=O)c1O [Pyridoxal 5'-phosphate (monohydrate)]
229E Inhibition rate, 24 h
  229E Inhibition rate: 28.9%

## COc1cc2c(c(OC)c1OC)-c1c(cc3c(c1OC)OCO3)C[C@H](C)[C@H](C)C2 [Gomisin N]
229E Inhibition rate, 24 h
  229E Inhibition rate: 42.9%

## O=C(O)CNC(=O)c1cccc(O)c1 [3-Hydroxyhippuric acid]
  229E Inhibition rate: 19.6%

## OCc1ccc(O[C@@H]2O[C@H](CO)[C@@H](O)[C@H](O)[C@H]2O)cc1 [Gastrodin]
  229E Inhibition rate: 46.1%

## N[C@H](Cc1ccccc1)C(=O)O [D-Phenylalanine]
  229E Inhibition rate: 16.6%

## CO[C@H]1[C@H](O)[C@H](O[C@H]2CC[C@@]3(C)[C@H](CC[C@@H]4[C@@H]3CC[C@]3(C)[C@@H](C5=CC(=O)OC5)CC[C@]43O)C2)O[C@@H](C)[C@@H]1O [Neriifolin]
  229E Inhibition rate: 28.8%

## O=c1c(-c2ccc(O)cc2)coc2cc(O)cc(O)c12 [Genistein]
  229E Inhibition rate: 17.6%

## CCOC(=O)/C=C/c1ccc(O)c(OC)c1 [Ethyl ferulate]
  229E Inhibition rate: 18.3%

## COc1cc(OC)c(C(=O)O)cc1OC [2,4,5-Trimethoxybenzoic acid]
  229E Inhibition rate: 10.6%

## COc1cc([C@@H]2c3cc4c(cc3[C@H](O)[C@H]3COC(=O)[C@H]23)OCO4)cc(OC)c1OC [Podofilox]
  229E Inhibition rate: 36.4%

## C=CCc1ccc(O)c(-c2ccc(O)c(CC=C)c2)c1 [Honokiol]
  229E Inhibition rate: 45.8%

## N[C@@H](CCS)C(=O)O [L-Homocysteine]
  229E Inhibition rate: 12.1%

## C/C1=C\C[C@]2(C(C)C)CC[C@@](C)(O2)[C@@H](O)CC/C(C)=C/CC1 [Incensole]
  229E Inhibition rate: 23.8%

## CC[C@@]1(O)C(=O)OCc2c1cc1n(c2=O)Cc2cc3cc(OC)ccc3nc2-1 [10-Methoxycamptothecin]
  229E Inhibition rate: 7.1%

## O=C(O[C@@H]1Cc2c(O)cc(O)cc2O[C@@H]1c1cc(O)c(O)c(O)c1)c1cc(O)c(O)c(O)c1 [(-)-Epigallocatechin Gallate]
  229E Inhibition rate: 14.2%

## C[C@@H]1O[C@@H](OC[C@H]2O[C@@H](Oc3c(-c4ccc(O)cc4)oc4cc(O)cc(O)c4c3=O)[C@H](O)[C@@H](O)[C@H]2O)[C@H](O)[C@H](O)[C@H]1O [Biorobin]
  229E Inhibition rate: 8.3%

## CC(C)(CO)[C@@H](O)C(=O)NCCCO [D-Panthenol]
  229E Inhibition rate: 8%

## C[C@@H]1O[C@@H](O[C@@H]2[C@@H](O)[C@H](OCCc3ccc(O)c(O)c3)O[C@H](CO)[C@H]2OC(=O)/C=C/c2ccc(O)c(O)c2)[C@H](O)[C@H](O)[C@H]1O [Verbascoside]
  229E Inhibition rate: 11.8%

## CCCCCCC/C=C/C(=O)CCc1ccc(O)c(OC)c1 [[8]-Shogaol]
  229E Inhibition rate: 39.3%

## CC1=C(C=O)C(C)(C)CC=C1 [Safranal]
  229E Inhibition rate: 11.9%

## COc1ccc(/C=C\c2cc(OC)c(OC)c(OC)c2)cc1OP(=O)(O)O [Fosbretabulin (disodium)]
  229E Inhibition rate: 17.4%

## O=c1c(O[C@@H]2O[C@H](CO)[C@H](O)[C@H](O)[C@H]2O[C@@H]2O[C@H](CO)[C@@H](O)[C@H](O)[C@H]2O)c(-c2ccc(O)cc2)oc2cc(O)cc(O)c12 [Panasenoside]
  229E Inhibition rate: 23%

## CC(C)=C1C/C=C(\C)CC/C=C(\C)CC1=O [Germacrone]
  229E Inhibition rate: 21.9%

## C=C[C@]1(C)C=C2CC[C@H]3[C@@](C)(CCC[C@@]3(C)C(=O)O)[C@@H]2CC1 [Continentalic acid]
  229E Inhibition rate: 5.1%

## COc1ccc(-c2oc3c(CC=C(C)C)c(O[C@@H]4O[C@H](CO)[C@@H](O)[C@H](O)[C@H]4O)cc(O)c3c(=O)c2O[C@@H]2O[C@@H](C)[C@H](O)[C@@H](O[C@@H]3O[C@H](CO)[C@@H](O)[C@H](O)[C@H]3O)[C@H]2O)cc1 [Epimedin A1]
  229E Inhibition rate: 8.7%

## CC(C)C[C@H](NC(=O)[C@@H](O)[C@H](N)Cc1ccccc1)C(=O)O [Bestatin (hydrochloride)]
229E Inhibition rate, 24 h
  229E Inhibition rate: 27.1%

## CO[C@H]1C[C@@H]2CC[C@@H](C)[C@@](O)(O2)C(=O)C(=O)N2CCCC[C@H]2C(=O)O[C@H]([C@H](C)C[C@@H]2CC[C@@H](O)[C@H](OC)C2)CC(=O)[C@H](C)/C=C(\C)[C@@H](O)[C@@H](OC)C(=O)[C@H](C)C[C@H](C)/C=C/C=C/C=C/1C [Rapamycin]
  229E Inhibition rate: 8.5%

## CO[C@H]1/C=C/O[C@@]2(C)Oc3c(C)c(O)c4c(c3C2=O)C(=O)C=C(NC(=O)/C(C)=C\C=C\[C@H](C)[C@H](O)[C@@H](C)[C@@H](O)[C@@H](C)[C@H](OC(C)=O)[C@@H]1C)C4=O [Rifamycin S]
  229E Inhibition rate: 9.2%

## O=C(O)[C@H](O)[C@@H](O)CO [Calcium L-Threonate]
  229E Inhibition rate: 7.8%

## COc1cc(CCC(=O)CC(O)CCc2ccc(O)c(OC)c2)ccc1O (stereo not drawn) [Hexahydrocurcumin]
  229E Inhibition rate: 10.9%

## COc1cc(-c2[o+]c3cc(O)cc(O)c3cc2O)cc(O)c1O [Petunidin (chloride)]
  229E Inhibition rate: 13.2%

## COc1cccc(OC)c1C(=O)O [2,6-Dimethoxybenzoic acid]
  229E Inhibition rate: 48.8%

## O=C1O[C@H]2[C@@H]3OC(=O)c4cc(O)c(O)c(O)c4-c4c(cc(O)c(O)c4O)C(=O)OC[C@H]2O[C@@H](OC(=O)c2cc(O)c(O)c(O)c2)[C@@H]3OC(=O)c2cc(O)c(O)c3c2[C@@H]2C1=CC(=O)[C@](O)(O3)C2(O)O [Geraniin]
  229E Inhibition rate: 9.9%

## C[C@@H]1CC[C@H]2[C@@H](C)C(=O)O[C@@H]3O[C@@]4(C)CC[C@@H]1[C@]32OO4 [Artemisinin]
  229E Inhibition rate: 15.5%

## O=C1C[C@@H](c2cc(O)c(O)c(O[C@@H]3O[C@H](CO)[C@@H](O)[C@H](O)[C@H]3O)c2)Oc2cc(O)cc(O)c21 [Plantagoside]
  229E Inhibition rate: 11.2%

## COc1ccc2cc3[n+](cc2c1OC)CCc1cc(O)c(O)cc1-3 [Demethyleneberberine]
  229E Inhibition rate: 40.5%

## CC(=O)c1cc(O)ccc1O [2,5-Dihydroxyacetophenone]
  229E Inhibition rate: 11.4%

## c1cncnc1 [Pyrimidine]
  229E Inhibition rate: 21.9%

## COc1ccc(/C=C/C(=O)O)cc1OC [3,4-Dimethoxycinnamic acid]
229E Inhibition rate, 24 h
  229E Inhibition rate: 26.8%

## COc1ccc(/C=C/c2cc(OC)cc(=O)o2)cc1 [Yangonin]
  229E Inhibition rate: 44%

## C=C1CC[C@@H]2[C@](C)(CO)[C@H](O)CC[C@@]2(C)[C@@H]1/C=C/C1=CCOC1=O [14-Deoxy-11,12-didehydroandrographolide]
  229E Inhibition rate: 40.5%

## COc1cc(/C=C/C(=O)OC[C@H]2O[C@@H](O[C@@H]3[C@@H](O)[C@H](O)[C@@H](CO)O[C@H]3c3c(OC)cc4oc(-c5ccc(O)cc5)cc(=O)c4c3O)[C@H](O)[C@@H](O)[C@@H]2O)ccc1O [6‴-Feruloylspinosin]
  229E Inhibition rate: 11.5%

## COc1cc2c(=O)c(-c3ccc(O)cc3)coc2cc1O[C@@H]1O[C@H](CO)[C@@H](O)[C@H](O)[C@H]1O [Glycitin]
  229E Inhibition rate: 11.5%

## O=C1C=C2C=C[C@@H](O)[C@H](O)[C@H]2O1 [Griffonilide]
  229E Inhibition rate: 12.9%

## COc1cc(COC(=O)CCCC/C=C/C(C)C)ccc1O [Capsiate]
  229E Inhibition rate: 9%

## CNc1nc2c(ncn2[C@@H]2O[C@H](CO)[C@@H](O)[C@H]2O)c(=O)[nH]1 [N2-Methylguanosine]
  229E Inhibition rate: 5.3%

## Nc1nc2c([nH]c(=O)n2[C@H]2C[C@H](O)[C@@H](CO)O2)c(=O)[nH]1 [8-Hydroxy-2'-deoxyguanosine]
  229E Inhibition rate: 7.8%

## COc1cc(C=O)ccc1O [Vanillin]
  229E Inhibition rate: 17.3%

## CC(=O)OC[C@H](Cc1ccccc1)NC(=O)[C@H](Cc1ccccc1)NC(=O)c1ccccc1 [Aurantiamide acetate]
  229E Inhibition rate: 0%
